Here are results for one molecule from paper PMC4948778.

The target of the test is RPP1_NdA LRR domain (aa 606-1154) (Arabidopsis thaliana). Put plainly: co-IP; differently tagged (3xFlag, 6xHA) constructs transiently co-expressed in N. benthamiana leaves, 36 or 48 hpi; alpha-Flag agarose, 3 h at 4 C; 50 mM Tris-HCl pH 7.5, 150 mM NaCl, 0.1% Triton X-100, 0.2% Nonidet P-40, 6 mM beta-mercaptoethanol; no effector needed (in Fig 7A and S18 ATR1_Emoy2 or ATR1_Cala2 co-expressed, said not to affect binding).

Results are given in words; binding and its absence hold for the method and conditions named. In cells and extracts the contact can be indirect.

B1: RPS2 LRR (aa 490-909) (domain or fragment, UniProt Q42484 490-909)
chain: KELILVEPSMGHTEAPKAENWRQALVISLLDNRIQTLPEKLICPKLTTLMLQQNSSLKKIPTGFFMHMPVLRVLDLSFTSITEIPLSIKYLVELYHLSMSGTKISVLPQELGNLRKLKHLDLQRTQFLQTIPRDAICWLSKLEVLNLYYSYAGWELQSFGEDEAEELGFADLEYLENLTTLGITVLSLETLKTLFEFGALHKHIQHLHVEECNELLYFNLPSLTNHGRNLRRLSIKSCHDLEYLVTPADFENDWLPSLEVLTLHSLHNLTRVWGNSVSQDCLRNIRCINISHCNKLKNVSWVQKLPKLEVIELFDCREIEELISEHESPSVEDPTLFPSLKTLRTRDLPELNSILPSRFSFQKVETLVITNCPRVKKLPFQERRTQMNLPTVYCEEKWWKALEKDQPNEELCYLPRFVPN
In the case of B1, the binding result is given as “no binding”.
